Assay results taken from patent publication US20230117831A1, “MULTI-FUNCTIONAL CHIMERIC MOLECULES” (THE BROAD INSTITUTE, INC., priority 2020, published 2023).
Results are given in words; binding and its absence hold for the method and conditions named. Some entries that bind do so weakly or less than the wild type.

Chains of the proteins cited; added tags and fusions are not shown. Lines headed by an entry give the natural chain unless they say otherwise; changes in a name come on top.
UniProt Q13131: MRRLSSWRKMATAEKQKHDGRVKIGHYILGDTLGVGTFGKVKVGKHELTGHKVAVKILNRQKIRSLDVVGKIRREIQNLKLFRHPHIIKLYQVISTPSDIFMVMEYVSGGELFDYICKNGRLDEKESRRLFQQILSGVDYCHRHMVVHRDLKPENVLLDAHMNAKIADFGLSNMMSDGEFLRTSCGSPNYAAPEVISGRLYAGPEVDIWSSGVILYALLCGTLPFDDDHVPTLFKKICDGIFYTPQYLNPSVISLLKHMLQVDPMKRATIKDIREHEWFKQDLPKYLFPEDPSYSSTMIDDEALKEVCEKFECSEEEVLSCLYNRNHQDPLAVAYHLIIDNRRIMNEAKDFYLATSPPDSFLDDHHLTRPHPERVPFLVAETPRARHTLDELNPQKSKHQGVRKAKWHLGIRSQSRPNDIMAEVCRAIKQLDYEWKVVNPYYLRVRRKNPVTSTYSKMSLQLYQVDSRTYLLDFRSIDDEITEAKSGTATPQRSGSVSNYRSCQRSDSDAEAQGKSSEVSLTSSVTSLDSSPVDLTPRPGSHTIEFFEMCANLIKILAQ

Columns and labels:
BRD2 = experiment: AlphaScreen ternary complex assay with His-tagged AMPK and BRD2-GST; the concentration of the bridging compound PHICS1 is varied
BRD3 = experiment: AlphaScreen ternary complex assay with His-tagged AMPK and BRD3-GST; the concentration of the bridging compound PHICS1 is varied

binding (BRD2): binds
binding (BRD3): binds
Substance: AMPK α1β1γ1-His tag (SignalChem P47-10H) (from UniProt Q13131 1-559; Q9Y478 1-270; P54619 1-331) (enzyme)
